In PMC7826843 one finds binding data, which are given here for 1 molecule.

By UniProt entry, the sequences of proteins in these tests, tags left out.
UniProt Q92993: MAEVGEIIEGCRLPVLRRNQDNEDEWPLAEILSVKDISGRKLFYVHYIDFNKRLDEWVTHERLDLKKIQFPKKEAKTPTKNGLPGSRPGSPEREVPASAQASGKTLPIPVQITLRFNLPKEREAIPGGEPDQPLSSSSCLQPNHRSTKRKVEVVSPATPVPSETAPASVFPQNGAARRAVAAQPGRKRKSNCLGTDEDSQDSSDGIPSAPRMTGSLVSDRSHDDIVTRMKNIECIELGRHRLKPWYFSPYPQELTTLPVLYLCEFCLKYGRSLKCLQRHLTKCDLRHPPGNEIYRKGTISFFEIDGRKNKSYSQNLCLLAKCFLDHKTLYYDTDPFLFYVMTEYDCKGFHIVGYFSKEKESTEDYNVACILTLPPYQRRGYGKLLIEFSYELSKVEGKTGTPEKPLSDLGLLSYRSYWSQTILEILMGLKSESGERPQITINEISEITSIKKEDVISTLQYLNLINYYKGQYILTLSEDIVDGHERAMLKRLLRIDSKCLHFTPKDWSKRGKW

No constants are given. Whether binding was seen depends on the method and setting. Binding seen in cells or lysates may run through a third protein. Some results given as binding are weak or reduced against the parent protein; the word gives no strength.

The assay addresses GFP–TIP60 (UniProt Q92993). The assay can be described thus: co-IP; HeLa Kyoto cells transiently expressing GFP or GFP–TIP60; RIPA lysate with DNase I, diluted; GFP–Trap Dynabeads over night at 4 °C; immunoblot for JAZF1, ZNHIT1 and GFP. (A western blot detects proteins with antibodies after separation by electrophoresis.)

B1: Juxtaposed with Another Zinc Finger 1 (JAZF1), endogenous (protein, UniProt Q86VZ6 1-243)
chain: MTGIAAASFFSNTCRFGGCGLHFPTLADLIEHIEDNHIDTDPRVLEKQELQQPTYVALSYINRFMTDAARREQESLKKKIQPKLSLTLSSSVSRGNVSTPPRHSSGSLTPPVTPPITPSSSFRSSTPTGSEYDEEEVDYEESDSDESWTTESAISSEAILSSMCMNGGEEKPFACPVPGCKKRYKNVNGIKYHAKNGHRTQIRVRKPFKCRCGKSYKTAQGLRHHTINFHPPVSAEIIRKMQQ
As for B1, the binding entry is recorded as “binds”.
